Measured values taken from EP4688832A1.
These are yes or no findings as the source states them, for the method shown. Some entries that bind do so weakly or less than the wild type.

Sequences of proteins named here, by UniProt entry; tags and fusion partners are left off. A change or cut given only in a name is not applied to a line headed by its entry.
UniProt P07766: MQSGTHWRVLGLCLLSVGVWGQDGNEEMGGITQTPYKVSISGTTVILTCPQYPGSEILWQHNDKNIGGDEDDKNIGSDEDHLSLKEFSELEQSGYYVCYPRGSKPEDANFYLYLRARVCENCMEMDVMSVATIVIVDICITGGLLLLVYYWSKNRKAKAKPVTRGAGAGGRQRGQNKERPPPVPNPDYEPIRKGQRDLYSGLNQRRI
UniProt P09693: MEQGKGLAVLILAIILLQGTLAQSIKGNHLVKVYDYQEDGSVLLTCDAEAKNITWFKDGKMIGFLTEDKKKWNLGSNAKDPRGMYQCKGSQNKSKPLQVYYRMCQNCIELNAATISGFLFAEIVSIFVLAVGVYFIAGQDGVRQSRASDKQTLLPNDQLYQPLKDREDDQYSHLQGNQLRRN
UniProt P04234: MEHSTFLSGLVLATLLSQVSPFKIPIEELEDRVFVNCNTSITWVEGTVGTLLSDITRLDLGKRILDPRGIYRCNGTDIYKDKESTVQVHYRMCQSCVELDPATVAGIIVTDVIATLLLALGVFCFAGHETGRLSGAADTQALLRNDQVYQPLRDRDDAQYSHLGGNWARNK
UniProt P20963: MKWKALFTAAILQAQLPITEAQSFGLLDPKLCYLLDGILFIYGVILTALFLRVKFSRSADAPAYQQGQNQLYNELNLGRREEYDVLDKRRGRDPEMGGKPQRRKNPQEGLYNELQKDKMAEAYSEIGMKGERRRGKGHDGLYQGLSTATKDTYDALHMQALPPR
UniProt Q95LI5: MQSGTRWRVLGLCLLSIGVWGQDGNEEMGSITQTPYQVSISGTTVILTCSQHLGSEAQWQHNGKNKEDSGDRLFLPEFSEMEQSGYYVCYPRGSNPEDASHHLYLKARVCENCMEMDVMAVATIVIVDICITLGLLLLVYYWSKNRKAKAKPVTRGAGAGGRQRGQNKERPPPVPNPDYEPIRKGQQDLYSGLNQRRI
UniProt Q95LI7: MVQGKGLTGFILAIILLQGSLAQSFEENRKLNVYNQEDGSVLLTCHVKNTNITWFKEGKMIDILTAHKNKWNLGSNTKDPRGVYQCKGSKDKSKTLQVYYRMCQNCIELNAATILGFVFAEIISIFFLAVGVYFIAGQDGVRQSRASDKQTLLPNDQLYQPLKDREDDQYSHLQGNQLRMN
UniProt Q95LI8: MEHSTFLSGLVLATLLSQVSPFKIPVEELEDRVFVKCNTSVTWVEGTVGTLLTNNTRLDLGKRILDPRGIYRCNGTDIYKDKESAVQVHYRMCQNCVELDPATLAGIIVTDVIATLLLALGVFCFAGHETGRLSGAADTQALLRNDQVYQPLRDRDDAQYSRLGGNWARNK

Key:
human CD3 (human) [1] = molecular target: T1, human CD3 (human) (UniProt P07766+P09693+P04234+P20963); test: FACS on Jurkat cells
[2] = molecular target: cynomolgus CD3 (cynomolgus) (UniProt Q95LI5+Q95LI7+Q95LI8); test: FACS on cynomolgus PBMC
human CD3 (human) [3] = molecular target: T1, human CD3 (human); test: FACS on human primary T cells

Measured: binding

B1: 39B12G6 chimeric anti-human CD3 monoclonal antibody (antibody, human IgG1, N297G, V domains shown)
VH: QVQLQQSGPELVKPGASVRISCKASGYTFTTSYIHFVRQRPGQGLEWIGWISPGDVNTKYSEKFKGRATLTADKSSTTAYMQLSSLTSEDSAVYFCTRDYGYYFDYWGQGTTLTVSS
VL: DIVMSQSPSSLAVSAGEKVTMSCKSSQSLLNSRTRKNYLAWYQKKPGQSPKLLIYWASTRESGVPDRFTGSGSGTDFTLTISSVQAEDLAVYYCKQSFILRTFGGGTKLEIKA
binds: all assays above
